Reference: the supplement of paper PMC10849652
This is one part of the list.

Sequences of proteins named here, by UniProt entry; tags and fusion partners are left off. A change or cut given only in a name is not applied to a line headed by its entry.
UniProt Q99871: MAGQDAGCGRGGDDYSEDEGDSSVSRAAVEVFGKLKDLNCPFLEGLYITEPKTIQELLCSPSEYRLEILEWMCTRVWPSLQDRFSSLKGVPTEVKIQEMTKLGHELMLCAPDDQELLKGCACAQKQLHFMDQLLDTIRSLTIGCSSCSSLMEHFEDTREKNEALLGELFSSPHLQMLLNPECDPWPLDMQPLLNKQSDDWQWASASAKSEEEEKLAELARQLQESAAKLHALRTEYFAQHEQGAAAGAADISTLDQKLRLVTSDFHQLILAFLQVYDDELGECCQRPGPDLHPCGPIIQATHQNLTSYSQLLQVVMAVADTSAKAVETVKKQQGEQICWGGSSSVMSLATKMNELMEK
UniProt Q9UBN7: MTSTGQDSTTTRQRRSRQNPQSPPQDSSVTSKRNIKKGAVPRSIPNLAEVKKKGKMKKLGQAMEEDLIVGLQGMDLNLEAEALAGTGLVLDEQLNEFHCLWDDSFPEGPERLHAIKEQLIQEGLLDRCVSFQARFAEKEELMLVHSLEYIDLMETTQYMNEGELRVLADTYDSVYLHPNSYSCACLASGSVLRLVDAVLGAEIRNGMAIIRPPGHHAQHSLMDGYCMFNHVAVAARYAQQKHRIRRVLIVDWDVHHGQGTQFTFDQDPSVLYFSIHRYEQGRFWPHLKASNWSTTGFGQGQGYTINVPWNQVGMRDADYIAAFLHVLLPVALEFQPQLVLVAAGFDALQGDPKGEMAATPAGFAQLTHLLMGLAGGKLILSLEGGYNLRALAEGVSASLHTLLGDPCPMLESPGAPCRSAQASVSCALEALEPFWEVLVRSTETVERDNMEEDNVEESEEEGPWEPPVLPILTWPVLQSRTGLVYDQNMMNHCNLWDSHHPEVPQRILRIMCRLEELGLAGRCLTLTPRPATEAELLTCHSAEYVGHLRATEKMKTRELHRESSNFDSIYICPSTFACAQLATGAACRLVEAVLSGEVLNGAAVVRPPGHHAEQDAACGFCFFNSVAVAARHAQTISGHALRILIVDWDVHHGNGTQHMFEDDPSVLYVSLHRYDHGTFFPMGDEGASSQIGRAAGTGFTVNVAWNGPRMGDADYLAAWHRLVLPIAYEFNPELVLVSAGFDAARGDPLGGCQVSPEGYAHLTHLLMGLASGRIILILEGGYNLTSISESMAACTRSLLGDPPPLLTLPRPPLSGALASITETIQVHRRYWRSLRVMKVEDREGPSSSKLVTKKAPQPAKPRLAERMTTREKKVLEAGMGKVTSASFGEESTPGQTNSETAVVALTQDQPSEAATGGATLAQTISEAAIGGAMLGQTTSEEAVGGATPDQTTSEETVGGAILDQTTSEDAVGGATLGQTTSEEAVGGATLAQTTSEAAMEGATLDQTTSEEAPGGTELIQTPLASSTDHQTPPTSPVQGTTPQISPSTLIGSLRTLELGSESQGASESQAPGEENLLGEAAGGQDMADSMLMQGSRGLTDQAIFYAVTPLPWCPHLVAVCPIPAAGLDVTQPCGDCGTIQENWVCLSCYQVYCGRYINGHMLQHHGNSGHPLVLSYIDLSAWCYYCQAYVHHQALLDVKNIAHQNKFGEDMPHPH
UniProt Q13547, whole entry, looked up: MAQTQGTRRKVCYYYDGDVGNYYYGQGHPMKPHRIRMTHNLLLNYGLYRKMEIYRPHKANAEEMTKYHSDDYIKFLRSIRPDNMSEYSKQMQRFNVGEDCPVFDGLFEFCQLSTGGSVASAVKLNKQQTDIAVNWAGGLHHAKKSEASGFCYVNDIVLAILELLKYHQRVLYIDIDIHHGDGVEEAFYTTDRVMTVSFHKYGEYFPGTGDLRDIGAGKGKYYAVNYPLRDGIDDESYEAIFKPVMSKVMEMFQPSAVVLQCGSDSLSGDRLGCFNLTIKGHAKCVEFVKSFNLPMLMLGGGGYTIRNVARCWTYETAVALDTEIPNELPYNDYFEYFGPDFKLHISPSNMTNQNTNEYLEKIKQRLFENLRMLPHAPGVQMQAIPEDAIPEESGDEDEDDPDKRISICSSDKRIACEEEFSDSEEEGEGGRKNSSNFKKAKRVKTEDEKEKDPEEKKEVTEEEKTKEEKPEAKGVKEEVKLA
UniProt P04921: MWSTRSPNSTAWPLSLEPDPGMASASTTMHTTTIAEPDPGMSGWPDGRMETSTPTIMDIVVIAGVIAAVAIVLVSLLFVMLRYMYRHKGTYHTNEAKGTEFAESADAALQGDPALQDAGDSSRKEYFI
UniProt Q8N442: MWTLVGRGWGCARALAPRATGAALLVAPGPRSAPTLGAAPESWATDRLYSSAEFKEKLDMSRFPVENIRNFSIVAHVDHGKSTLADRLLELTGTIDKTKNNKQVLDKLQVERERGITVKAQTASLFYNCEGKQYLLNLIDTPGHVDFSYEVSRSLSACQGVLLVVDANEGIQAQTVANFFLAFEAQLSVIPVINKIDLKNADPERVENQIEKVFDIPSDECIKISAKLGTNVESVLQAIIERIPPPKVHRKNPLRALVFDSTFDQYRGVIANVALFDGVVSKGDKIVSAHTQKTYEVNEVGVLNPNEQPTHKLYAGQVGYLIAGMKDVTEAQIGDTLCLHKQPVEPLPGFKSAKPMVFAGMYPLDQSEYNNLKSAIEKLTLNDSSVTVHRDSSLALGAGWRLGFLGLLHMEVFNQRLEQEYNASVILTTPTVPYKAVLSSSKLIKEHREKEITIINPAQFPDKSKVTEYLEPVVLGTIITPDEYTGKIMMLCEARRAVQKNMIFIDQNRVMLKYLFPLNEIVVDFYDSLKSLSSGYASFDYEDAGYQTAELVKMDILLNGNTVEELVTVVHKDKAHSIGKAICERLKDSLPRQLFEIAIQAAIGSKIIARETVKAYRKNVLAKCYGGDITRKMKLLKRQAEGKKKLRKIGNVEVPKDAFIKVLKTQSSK
UniProt P69905, whole entry, looked up: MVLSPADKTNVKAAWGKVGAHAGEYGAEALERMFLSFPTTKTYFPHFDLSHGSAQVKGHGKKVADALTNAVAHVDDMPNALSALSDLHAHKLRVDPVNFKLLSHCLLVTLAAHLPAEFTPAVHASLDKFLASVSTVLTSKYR
UniProt O15379: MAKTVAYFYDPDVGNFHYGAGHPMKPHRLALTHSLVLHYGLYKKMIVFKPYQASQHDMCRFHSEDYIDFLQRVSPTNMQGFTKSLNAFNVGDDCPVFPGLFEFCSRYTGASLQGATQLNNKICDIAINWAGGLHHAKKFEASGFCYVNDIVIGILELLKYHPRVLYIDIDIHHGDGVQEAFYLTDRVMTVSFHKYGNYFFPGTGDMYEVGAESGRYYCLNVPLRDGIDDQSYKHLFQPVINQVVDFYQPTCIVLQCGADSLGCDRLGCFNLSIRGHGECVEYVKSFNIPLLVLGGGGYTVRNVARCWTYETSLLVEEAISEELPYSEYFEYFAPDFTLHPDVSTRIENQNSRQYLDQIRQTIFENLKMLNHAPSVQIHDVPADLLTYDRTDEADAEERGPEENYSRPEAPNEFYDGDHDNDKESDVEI
UniProt Q7Z4V5: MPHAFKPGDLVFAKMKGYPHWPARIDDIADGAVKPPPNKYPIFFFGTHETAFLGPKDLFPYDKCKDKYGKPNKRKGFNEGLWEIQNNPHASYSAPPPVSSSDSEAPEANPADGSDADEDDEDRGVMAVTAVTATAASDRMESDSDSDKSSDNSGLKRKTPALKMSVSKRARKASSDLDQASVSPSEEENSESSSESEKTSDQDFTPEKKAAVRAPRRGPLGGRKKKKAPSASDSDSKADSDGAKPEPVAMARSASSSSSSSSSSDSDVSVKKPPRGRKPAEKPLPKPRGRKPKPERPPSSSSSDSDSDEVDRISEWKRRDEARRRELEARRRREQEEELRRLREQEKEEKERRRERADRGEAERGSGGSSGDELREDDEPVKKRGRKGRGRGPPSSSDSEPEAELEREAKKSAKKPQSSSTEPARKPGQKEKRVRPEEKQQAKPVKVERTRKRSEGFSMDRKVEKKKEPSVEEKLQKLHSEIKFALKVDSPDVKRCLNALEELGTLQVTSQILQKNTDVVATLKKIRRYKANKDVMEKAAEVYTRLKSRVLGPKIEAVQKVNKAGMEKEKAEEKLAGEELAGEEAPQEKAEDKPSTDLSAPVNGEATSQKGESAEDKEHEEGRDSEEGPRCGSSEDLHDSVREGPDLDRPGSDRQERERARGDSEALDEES
UniProt Q9BX10: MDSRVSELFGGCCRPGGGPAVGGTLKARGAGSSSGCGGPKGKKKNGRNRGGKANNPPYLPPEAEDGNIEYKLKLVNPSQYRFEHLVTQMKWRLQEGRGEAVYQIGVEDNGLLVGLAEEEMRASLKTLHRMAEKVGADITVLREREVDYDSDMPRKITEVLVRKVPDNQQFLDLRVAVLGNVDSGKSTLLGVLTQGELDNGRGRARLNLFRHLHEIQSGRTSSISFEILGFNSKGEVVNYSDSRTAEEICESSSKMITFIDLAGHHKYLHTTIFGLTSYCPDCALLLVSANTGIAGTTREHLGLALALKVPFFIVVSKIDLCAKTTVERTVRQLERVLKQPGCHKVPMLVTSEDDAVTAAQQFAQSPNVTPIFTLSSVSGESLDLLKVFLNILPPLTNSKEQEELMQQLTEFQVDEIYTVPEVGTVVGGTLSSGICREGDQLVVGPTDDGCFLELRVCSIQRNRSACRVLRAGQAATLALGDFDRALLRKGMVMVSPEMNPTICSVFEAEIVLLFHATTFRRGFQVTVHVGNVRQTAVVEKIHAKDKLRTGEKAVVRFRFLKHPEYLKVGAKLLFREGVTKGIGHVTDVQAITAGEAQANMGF
UniProt P43250, whole entry, looked up: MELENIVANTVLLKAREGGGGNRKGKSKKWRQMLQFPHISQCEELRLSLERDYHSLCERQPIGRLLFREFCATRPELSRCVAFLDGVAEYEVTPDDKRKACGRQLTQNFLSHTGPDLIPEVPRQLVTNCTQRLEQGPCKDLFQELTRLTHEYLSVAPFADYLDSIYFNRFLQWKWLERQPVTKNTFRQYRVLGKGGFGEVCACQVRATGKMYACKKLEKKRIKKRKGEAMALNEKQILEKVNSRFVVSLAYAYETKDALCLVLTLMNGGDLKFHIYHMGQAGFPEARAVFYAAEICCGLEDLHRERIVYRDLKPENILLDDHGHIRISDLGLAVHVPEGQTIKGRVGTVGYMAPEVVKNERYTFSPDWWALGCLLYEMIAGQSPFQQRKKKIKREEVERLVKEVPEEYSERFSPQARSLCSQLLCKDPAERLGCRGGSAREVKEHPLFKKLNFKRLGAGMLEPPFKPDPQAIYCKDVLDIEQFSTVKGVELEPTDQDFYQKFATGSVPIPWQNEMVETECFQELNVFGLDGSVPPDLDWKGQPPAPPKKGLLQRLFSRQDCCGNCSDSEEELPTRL
UniProt Q12849: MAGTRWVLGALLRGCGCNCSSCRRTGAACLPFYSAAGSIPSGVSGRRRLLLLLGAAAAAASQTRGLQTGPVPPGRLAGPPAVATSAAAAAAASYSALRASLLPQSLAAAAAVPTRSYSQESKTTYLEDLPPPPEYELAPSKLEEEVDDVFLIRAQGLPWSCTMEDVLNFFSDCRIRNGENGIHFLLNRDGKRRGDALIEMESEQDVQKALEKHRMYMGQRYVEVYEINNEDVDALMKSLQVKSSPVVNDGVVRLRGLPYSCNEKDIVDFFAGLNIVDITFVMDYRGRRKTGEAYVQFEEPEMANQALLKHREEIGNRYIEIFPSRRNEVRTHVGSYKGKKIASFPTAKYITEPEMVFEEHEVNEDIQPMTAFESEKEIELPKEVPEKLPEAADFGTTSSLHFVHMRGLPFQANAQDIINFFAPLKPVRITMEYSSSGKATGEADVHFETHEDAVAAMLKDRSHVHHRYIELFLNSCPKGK
UniProt Q92522: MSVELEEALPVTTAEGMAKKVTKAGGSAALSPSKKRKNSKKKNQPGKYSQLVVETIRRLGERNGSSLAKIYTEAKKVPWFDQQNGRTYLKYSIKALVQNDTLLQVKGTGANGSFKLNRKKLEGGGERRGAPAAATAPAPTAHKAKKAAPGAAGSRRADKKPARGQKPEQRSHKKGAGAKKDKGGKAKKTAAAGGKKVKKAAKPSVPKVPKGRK
UniProt O00165, whole entry, looked up: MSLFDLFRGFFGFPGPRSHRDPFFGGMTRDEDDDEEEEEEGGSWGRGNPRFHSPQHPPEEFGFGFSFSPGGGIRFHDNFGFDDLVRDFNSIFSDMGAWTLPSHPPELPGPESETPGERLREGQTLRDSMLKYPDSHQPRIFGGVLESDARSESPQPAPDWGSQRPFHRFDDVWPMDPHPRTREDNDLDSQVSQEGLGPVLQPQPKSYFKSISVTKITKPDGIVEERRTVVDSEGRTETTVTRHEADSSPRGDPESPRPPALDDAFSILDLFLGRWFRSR

Assays:
Test in all cases: log2 fold change, soluble protein after heating vs DMSO (PISA); higher = thermal stabilisation; K562 lysate, 10 uM; active = over 0.2 and 3.5 SD of the protein, either way, in both replicates (recomputed)
[1] = compound: C#Cc1cccc(Nc2ncnc3cc(OCCOC)c(OCCOC)cc23)c1 [erlotinib]
Outline: (§1)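 K562 pellets were dounce-homogenised in PBS pH 7.4 with 1 mM MgCl2, and the crude extract at 1 mg/mL protein was treated with 10 μM compound for 30 min. Aliquots were heated for 3 min across 48°C-58°C, pooled, and brought to 0.5% NP-40 at 4°C; soluble protein was the supernatant after 21,000xg for 90 min. Soluble protein was quantified by TMTpro 16plex LC-MS/MS with channel sums equalised, and reported as log2 fold change in thermal stability against DMSO controls, with values from duplicates.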

[2] = compound: C/C(=N\NC(=O)C1=CC(=CC=C1)S(=O)(=O)N2CCOCC2)/C3=C(C=CC(=C3)Cl)O
Outline: as §1

[3] = compound: C1=CC(=CC=C1C2=NC3=C(N2)C=C(C=C3)C(=O)N)OC4=CC=C(C=C4)Cl
Outline: as §1

[4] = compound: C1=CC2=C(C=CC(=C2)/C=C\3/C(=O)NC(=NCC4=CC=CS4)S3)N=C1
Outline: as §1

[5] = compound: C1=CC2=NC=CN=C2C=C1/C=C/3\C(=O)NC(=O)S3
Outline: as §1

[6] = compound: C1=CC=C(C=C1)C2=NC(=C(N2)C3=CC=NC=C3)C4=CC(=C(C=C4)Cl)O
Outline: as §1

[7] = compound: C1=CC=C2C(=C1)C3=NNC4=CC=CC(=C43)C2=O
Outline: as §1

[8] = compound: C1CCN(C1)C(=O)NC2=CC=CC(=C2)NC3=NC=C(C(=N3)NCCC4=CN=CN4)Br
Outline: as §1

[9] = compound: C1CN(CCC1(CC2=CC=C(C=C2)Cl)N)C3=NC=NC4=C3C=CN4
Outline: as §1

[10] = compound: C1COCCN1CCN2C3=CC=CC=C3N=C2NC(=O)C4=CC(=CC=C4)[N+](=O)[O-] [IRAK-1-4 Inhibitor I]
Outline: as §1

[11] = compound: C=CC(=O)N1CCC[C@@H](n2nc(-c3ccc(Oc4ccccc4)cc3)c3c(N)ncnc32)C1 [ibrutinib]
Outline: as §1

[12] = compound: CC(=O)c1cnc2ccc(-c3cc(Cl)c(O)c(Cl)c3)nc2c1N[C@H]1CC[C@H](CN(C)C)CC1
Outline: as §1

[13] = compound: CC(C)(C)Cn1c(N)nc2ccc(-c3[nH]c(C(C)(C)C)nc3-c3ccc(F)cc3)nc21 [ralimetinib]
Outline: as §1

[14] = compound: CC(C)(O)CC(=O)NCCn1ccc2ncnc(Nc3ccc(Oc4cccc(C(F)(F)F)c4)c(Cl)c3)c21
Outline: as §1

[15] = compound: CC(C)C1=C2N=C(C=C(N2N=C1)NCC3=CC=CC=C3)NCCCCCCN
Outline: as §1

[16] = compound: CC1=C(C(CC(=O)N1)C2=CC=C(C=C2)C(F)(F)F)C(=O)NC3=C(C=C4C(=C3)C=NN4)F
Outline: as §1

[17] = compound: CC1=C(C2=C(C=C1)C(=O)C3=CC=CC=C3N2CCCN)C
Outline: as §1

[18] = compound: CC1=C(C=C(C=C1)NC(=O)C2=CC(=CC=C2)C(C)(C)C#N)NC3=CC4=C(C=C3)N=CN(C4=O)C
Outline: as §1

[19] = compound: CC1=C(C=C(C=C1)NC(=O)C2=CC(=CC=C2)N(C)C)NC(=O)C3=CC=C(C=C3)O
Outline: as §1

[20] = compound: CC1=CC=C(C=C1)SC2=C3C=C(SC3=CN=C2)C(=O)N
Outline: as §1

Measured: log2 fold change

HAUS7 isoform 2 (UniProt Q99871)
inactive: [1] 0.104 | [2] 0.106 | [3] 0.028 | [4] -0.005 | [5] 0 | [6] 0.048 | [7] -0.006 | [8] -0.011 | [9] 0.164 | [10] -0.028 | [11] 0.082 | [12] 0.105 | [13] -0.002 | [14] -0.031 | [15] 0.05 | [16] -0.003 | [17] 0.028 | [18] -0.031 | [19] 0.021 | [20] -0.054

HAGH (UniProt Q16775)
inactive: [1] 0.004 | [2] -0.064 | [3] 0.019 | [4] -0.019 | [5] 0.022 | [6] 0.004 | [7] -0.033 | [8] -0.018 | [9] 0.017 | [10] 0.016 | [11] 0.049 | [12] -0.013 | [13] 0.005 | [14] -0.03 | [15] -0.051 | [16] 0.024 | [17] -0.048 | [18] 0.039 | [19] -0.038 | [20] 0.019

HDAC6 (UniProt Q9UBN7)
inactive: [1] -0.025 | [2] -0.002 | [3] -0.025 | [4] -0.006 | [5] -0.014 | [6] -0.042 | [7] -0.034 | [8] -0.001 | [9] -0.023 | [10] 0.008 | [11] -0.051 | [12] 0.003 | [13] -0.024 | [14] -0.041 | [15] -0.014 | [16] -0.036 | [17] -0.002 | [18] 0.008 | [19] -0.01 | [20] 0.01

HDAC1 (UniProt Q13547)
inactive: [1] 0 | [2] -0.046 | [3] -0.012 | [4] 0.015 | [5] 0.003 | [6] -0.013 | [7] -0.024 | [8] -0.014 | [9] -0.036 | [10] -0.043 | [11] -0.026 | [12] -0.001 | [13] 0.031 | [14] 0.01 | [15] -0.001 | [16] 0.001 | [17] -0.008 | [18] -0.022 | [19] 0.008 | [20] 0.011

GYPC (UniProt P04921)
inactive: [1] 0.163 | [2] -0.135 | [3] -0.114 | [4] 0.082 | [5] -0.085 | [6] 0.129 | [7] -0.009 | [8] -0.013 | [9] 0.011 | [10] 0.018 | [11] 0.276 | [12] -0.052 | [13] 0.078 | [14] -0.11 | [15] -0.111 | [16] 0.071 | [17] -0.001 | [18] 0.033 | [19] -0.071 | [20] 0.004

GUF1 (UniProt Q8N442)
inactive: [1] 0.147 | [2] -0.148 | [3] -0.095 | [4] 0 | [5] -0.013 | [6] -0.008 | [7] 0.183 | [8] 0.054 | [9] 0.031 | [10] 0.017 | [11] 0.054 | [12] -0.078 | [13] 0.115 | [14] -0.061 | [15] 0.047 | [16] 0.072 | [17] -0.018 | [18] -0.085 | [19] 0.045 | [20] 0.115

Reprinted at random: two entries already listed
HDAC1 (UniProt Q13547)
inactive: [1] 0 | [2] -0.046 | [3] -0.012 | [4] 0.015 | [5] 0.003 | [6] -0.013 | [7] -0.024 | [8] -0.014 | [9] -0.036 | [10] -0.043 | [11] -0.026 | [12] -0.001 | [13] 0.031 | [14] 0.01 | [15] -0.001 | [16] 0.001 | [17] -0.008 | [18] -0.022 | [19] 0.008 | [20] 0.011

HAGH (UniProt Q16775)
inactive: [1] 0.004 | [2] -0.064 | [3] 0.019 | [4] -0.019 | [5] 0.022 | [6] 0.004 | [7] -0.033 | [8] -0.018 | [9] 0.017 | [10] 0.016 | [11] 0.049 | [12] -0.013 | [13] 0.005 | [14] -0.03 | [15] -0.051 | [16] 0.024 | [17] -0.048 | [18] 0.039 | [19] -0.038 | [20] 0.019

(further entries)

HBA1 (UniProt P69905)
inactive: [1] 0.053 | [2] -0.02 | [3] -0.059 | [4] 0.044 | [5] 0.03 | [6] -0.019 | [7] 0.036 | [8] 0.03 | [9] 0.081 | [10] -0.012 | [11] 0.011 | [12] -0.058 | [13] 0.011 | [14] -0.062 | [15] -0.024 | [16] -0.062 | [17] 0.003 | [18] 0.081 | [19] -0.01 | [20] 0.043

HDAC8 (UniProt Q9BY41)
inactive: [1] -0.015 | [2] -0.028 | [3] -0.132 | [4] 0.012 | [5] -0.052 | [6] -0.037 | [7] -0.001 | [8] 0.027 | [9] -0.061 | [10] 0.008 | [11] -0.102 | [12] 0.049 | [13] -0.018 | [14] 0.041 | [15] 0.045 | [16] -0.111 | [17] 0.08 | [18] -0.012 | [19] -0.013 | [20] 0

HDAC3 (UniProt O15379)
inactive: [1] 0.061 | [2] -0.035 | [3] 0.056 | [4] -0.008 | [5] -0.001 | [6] 0.01 | [7] 0.019 | [8] -0.017 | [9] 0.029 | [10] 0.028 | [11] -0.004 | [12] 0 | [13] 0.043 | [14] 0.018 | [15] -0.029 | [16] -0.03 | [17] 0 | [18] -0.003 | [19] -0.082 | [20] -0.007

HDGFL2 isoform 2 (UniProt Q7Z4V5)
inactive: [1] -0.008 | [2] -0.028 | [3] 0.032 | [4] -0.008 | [5] -0.03 | [6] 0.027 | [7] 0.01 | [8] 0 | [9] 0.021 | [10] 0 | [11] -0.033 | [12] -0.002 | [13] -0.01 | [14] -0.049 | [15] 0.011 | [16] -0.015 | [17] -0.026 | [18] 0.022 | [19] 0.021 | [20] -0.044

GTPBP2 (UniProt Q9BX10)
inactive: [1] -0.008 | [2] -0.051 | [3] -0.05 | [4] -0.002 | [5] -0.011 | [6] 0.02 | [7] -0.032 | [8] -0.058 | [9] -0.017 | [10] 0.023 | [11] 0.008 | [12] -0.123 | [13] 0.042 | [14] -0.035 | [15] 0 | [16] 0.004 | [17] -0.018 | [18] 0 | [19] 0.047 | [20] -0.032

GRK6 isoform 2 (UniProt P43250)
inactive: [1] -0.014 | [2] -0.126 | [3] 0.015 | [4] -0.009 | [5] -0.046 | [6] -0.063 | [7] 0.284 | [8] -0.161 | [9] 0.108 | [10] 0.053 | [11] 0.083 | [12] 0.04 | [13] -0.073 | [14] -0.068 | [15] -0.036 | [16] 0.021 | [17] -0.092 | [18] 0.048 | [19] -0.049 | [20] -0.005

GSE1 (UniProt Q14687)
inactive: [1] 0.012 | [2] -0.022 | [3] 0.025 | [4] 0.003 | [5] -0.001 | [6] -0.013 | [7] -0.048 | [8] -0.032 | [9] -0.018 | [10] -0.011 | [11] 0.006 | [12] -0.021 | [13] 0.015 | [14] -0.026 | [15] -0.004 | [16] -0.009 | [17] 0.008 | [18] -0.055 | [19] 0.035 | [20] -0.016

GRSF1 (UniProt Q12849)
inactive: [1] -0.02 | [2] -0.03 | [3] 0.016 | [4] -0.003 | [5] 0.003 | [6] -0.014 | [7] -0.032 | [8] 0.004 | [9] 0.034 | [10] 0.054 | [11] -0.007 | [12] -0.029 | [13] 0.014 | [14] -0.043 | [15] -0.025 | [16] -0.02 | [17] -0.025 | [18] 0.016 | [19] 0.004 | [20] -0.005

H1FX (UniProt Q92522)
inactive: [1] -0.018 | [2] 0.007 | [3] -0.033 | [4] 0.019 | [5] -0.056 | [6] -0.004 | [7] 0.071 | [8] 0.018 | [9] -0.02 | [10] -0.022 | [11] 0.015 | [12] -0.01 | [13] -0.025 | [14] -0.011 | [15] 0.007 | [16] -0.014 | [17] 0.001 | [18] 0.011 | [19] -0.021 | [20] 0.014

HAX1 (UniProt O00165)
inactive: [1] 0.003 | [2] 0.024 | [3] -0.078 | [4] 0.013 | [5] -0.01 | [6] 0.015 | [7] -0.034 | [8] 0.056 | [9] -0.029 | [10] 0.022 | [11] 0.048 | [12] 0.042 | [13] 0 | [14] -0.016 | [15] 0.056 | [16] 0.002 | [17] -0.054 | [18] -0.011 | [19] 0.017 | [20] 0.015
